# Test results: the supplement of paper PMC10849652
# Sequences of proteins named here, by UniProt entry; tags and fusion partners are left off. A change or cut given only in a name is not applied to a line headed by its entry.
# UniProt O00488: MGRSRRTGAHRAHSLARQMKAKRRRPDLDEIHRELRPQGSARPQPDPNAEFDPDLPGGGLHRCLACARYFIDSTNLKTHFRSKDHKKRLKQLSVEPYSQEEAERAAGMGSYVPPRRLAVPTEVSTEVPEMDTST
# UniProt Q86UK7: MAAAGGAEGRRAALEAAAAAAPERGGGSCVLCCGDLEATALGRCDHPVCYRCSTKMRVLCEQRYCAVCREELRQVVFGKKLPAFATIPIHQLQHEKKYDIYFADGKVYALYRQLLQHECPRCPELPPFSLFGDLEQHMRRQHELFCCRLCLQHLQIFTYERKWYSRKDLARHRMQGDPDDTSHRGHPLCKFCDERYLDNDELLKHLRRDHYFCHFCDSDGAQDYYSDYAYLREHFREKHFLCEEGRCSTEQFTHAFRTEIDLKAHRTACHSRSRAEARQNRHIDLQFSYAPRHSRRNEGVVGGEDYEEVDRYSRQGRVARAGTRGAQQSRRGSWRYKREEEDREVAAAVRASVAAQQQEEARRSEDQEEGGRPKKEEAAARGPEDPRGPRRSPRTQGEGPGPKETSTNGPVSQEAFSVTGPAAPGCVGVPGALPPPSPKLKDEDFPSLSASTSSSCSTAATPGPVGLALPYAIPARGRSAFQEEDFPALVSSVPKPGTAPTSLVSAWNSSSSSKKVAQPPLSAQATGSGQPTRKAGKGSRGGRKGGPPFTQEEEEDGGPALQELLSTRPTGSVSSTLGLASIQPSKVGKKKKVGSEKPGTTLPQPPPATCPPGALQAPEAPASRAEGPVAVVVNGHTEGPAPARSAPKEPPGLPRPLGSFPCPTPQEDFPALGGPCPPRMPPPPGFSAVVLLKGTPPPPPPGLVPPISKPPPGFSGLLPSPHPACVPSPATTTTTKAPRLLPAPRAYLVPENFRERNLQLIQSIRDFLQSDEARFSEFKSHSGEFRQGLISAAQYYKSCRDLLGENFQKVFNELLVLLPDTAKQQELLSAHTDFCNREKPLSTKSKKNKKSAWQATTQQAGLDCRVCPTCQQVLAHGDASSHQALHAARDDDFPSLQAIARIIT
# UniProt O15014: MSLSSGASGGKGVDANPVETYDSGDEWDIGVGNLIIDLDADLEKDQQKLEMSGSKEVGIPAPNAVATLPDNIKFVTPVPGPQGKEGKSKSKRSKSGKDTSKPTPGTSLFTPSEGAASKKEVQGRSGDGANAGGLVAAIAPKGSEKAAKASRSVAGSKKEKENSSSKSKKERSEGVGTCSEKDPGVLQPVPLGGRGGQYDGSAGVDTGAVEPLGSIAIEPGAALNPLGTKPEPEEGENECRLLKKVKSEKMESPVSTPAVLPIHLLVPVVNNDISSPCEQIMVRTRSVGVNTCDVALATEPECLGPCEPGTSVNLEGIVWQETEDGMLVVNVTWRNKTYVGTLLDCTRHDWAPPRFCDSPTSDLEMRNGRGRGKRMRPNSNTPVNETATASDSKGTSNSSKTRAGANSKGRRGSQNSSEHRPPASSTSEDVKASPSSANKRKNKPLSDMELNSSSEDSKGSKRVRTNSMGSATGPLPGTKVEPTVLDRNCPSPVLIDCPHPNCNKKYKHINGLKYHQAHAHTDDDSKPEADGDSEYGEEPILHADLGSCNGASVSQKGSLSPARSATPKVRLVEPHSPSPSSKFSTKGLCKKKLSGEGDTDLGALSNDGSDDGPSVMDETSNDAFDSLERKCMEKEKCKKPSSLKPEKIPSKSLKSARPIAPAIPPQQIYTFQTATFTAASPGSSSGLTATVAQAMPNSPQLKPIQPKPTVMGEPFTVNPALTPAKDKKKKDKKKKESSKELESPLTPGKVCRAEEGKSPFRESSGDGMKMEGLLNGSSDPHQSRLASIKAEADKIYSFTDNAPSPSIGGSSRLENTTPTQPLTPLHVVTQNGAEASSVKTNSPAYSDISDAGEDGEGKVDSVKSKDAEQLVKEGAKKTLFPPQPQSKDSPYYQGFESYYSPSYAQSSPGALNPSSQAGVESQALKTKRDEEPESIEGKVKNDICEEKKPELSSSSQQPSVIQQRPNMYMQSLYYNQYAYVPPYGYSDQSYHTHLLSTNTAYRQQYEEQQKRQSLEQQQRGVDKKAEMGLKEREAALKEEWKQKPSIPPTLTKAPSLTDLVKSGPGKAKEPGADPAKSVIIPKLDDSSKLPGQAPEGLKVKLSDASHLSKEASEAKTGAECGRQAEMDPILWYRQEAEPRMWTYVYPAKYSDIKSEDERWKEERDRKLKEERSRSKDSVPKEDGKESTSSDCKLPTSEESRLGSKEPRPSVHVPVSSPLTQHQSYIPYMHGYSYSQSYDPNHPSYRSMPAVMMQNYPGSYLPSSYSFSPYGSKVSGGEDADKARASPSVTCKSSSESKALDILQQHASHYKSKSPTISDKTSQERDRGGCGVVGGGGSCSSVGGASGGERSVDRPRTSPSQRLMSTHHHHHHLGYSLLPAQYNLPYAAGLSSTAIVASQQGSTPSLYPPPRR
# UniProt Q5T7W0: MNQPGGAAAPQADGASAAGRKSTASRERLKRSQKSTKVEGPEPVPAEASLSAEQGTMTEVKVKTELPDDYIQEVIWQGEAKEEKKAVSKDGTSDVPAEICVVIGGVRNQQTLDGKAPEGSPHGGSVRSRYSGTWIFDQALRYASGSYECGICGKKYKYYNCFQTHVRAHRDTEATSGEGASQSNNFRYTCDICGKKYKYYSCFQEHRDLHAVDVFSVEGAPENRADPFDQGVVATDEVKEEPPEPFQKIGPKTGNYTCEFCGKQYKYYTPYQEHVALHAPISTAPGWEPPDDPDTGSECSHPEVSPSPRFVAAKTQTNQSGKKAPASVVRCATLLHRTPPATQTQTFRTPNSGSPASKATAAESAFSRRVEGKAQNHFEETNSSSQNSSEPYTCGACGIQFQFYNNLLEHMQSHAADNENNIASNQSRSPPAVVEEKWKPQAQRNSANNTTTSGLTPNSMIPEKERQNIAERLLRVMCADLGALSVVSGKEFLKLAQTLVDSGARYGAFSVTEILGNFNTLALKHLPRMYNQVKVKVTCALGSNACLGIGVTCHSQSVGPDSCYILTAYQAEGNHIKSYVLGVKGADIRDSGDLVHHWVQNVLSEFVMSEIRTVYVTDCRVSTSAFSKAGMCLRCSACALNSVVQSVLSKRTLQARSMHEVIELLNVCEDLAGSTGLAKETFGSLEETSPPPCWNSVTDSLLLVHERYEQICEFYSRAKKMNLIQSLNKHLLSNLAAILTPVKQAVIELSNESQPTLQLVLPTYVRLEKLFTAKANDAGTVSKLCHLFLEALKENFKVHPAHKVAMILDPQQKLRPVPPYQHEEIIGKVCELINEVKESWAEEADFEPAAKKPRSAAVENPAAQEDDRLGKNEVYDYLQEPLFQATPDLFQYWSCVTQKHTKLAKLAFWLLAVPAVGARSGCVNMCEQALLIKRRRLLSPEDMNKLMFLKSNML
# UniProt Q969S3: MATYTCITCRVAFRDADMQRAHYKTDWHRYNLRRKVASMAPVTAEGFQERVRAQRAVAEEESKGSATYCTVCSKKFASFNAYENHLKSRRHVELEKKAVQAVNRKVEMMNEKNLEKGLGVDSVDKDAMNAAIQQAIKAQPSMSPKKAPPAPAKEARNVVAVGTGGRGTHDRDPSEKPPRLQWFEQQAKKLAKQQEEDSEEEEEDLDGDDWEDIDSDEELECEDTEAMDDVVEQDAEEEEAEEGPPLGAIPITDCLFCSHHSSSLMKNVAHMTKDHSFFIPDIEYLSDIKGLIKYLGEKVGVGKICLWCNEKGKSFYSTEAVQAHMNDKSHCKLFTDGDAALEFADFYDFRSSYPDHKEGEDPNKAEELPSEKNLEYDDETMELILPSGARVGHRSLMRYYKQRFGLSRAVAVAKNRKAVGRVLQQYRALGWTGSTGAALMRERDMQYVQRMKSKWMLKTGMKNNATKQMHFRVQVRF
# UniProt Q14966: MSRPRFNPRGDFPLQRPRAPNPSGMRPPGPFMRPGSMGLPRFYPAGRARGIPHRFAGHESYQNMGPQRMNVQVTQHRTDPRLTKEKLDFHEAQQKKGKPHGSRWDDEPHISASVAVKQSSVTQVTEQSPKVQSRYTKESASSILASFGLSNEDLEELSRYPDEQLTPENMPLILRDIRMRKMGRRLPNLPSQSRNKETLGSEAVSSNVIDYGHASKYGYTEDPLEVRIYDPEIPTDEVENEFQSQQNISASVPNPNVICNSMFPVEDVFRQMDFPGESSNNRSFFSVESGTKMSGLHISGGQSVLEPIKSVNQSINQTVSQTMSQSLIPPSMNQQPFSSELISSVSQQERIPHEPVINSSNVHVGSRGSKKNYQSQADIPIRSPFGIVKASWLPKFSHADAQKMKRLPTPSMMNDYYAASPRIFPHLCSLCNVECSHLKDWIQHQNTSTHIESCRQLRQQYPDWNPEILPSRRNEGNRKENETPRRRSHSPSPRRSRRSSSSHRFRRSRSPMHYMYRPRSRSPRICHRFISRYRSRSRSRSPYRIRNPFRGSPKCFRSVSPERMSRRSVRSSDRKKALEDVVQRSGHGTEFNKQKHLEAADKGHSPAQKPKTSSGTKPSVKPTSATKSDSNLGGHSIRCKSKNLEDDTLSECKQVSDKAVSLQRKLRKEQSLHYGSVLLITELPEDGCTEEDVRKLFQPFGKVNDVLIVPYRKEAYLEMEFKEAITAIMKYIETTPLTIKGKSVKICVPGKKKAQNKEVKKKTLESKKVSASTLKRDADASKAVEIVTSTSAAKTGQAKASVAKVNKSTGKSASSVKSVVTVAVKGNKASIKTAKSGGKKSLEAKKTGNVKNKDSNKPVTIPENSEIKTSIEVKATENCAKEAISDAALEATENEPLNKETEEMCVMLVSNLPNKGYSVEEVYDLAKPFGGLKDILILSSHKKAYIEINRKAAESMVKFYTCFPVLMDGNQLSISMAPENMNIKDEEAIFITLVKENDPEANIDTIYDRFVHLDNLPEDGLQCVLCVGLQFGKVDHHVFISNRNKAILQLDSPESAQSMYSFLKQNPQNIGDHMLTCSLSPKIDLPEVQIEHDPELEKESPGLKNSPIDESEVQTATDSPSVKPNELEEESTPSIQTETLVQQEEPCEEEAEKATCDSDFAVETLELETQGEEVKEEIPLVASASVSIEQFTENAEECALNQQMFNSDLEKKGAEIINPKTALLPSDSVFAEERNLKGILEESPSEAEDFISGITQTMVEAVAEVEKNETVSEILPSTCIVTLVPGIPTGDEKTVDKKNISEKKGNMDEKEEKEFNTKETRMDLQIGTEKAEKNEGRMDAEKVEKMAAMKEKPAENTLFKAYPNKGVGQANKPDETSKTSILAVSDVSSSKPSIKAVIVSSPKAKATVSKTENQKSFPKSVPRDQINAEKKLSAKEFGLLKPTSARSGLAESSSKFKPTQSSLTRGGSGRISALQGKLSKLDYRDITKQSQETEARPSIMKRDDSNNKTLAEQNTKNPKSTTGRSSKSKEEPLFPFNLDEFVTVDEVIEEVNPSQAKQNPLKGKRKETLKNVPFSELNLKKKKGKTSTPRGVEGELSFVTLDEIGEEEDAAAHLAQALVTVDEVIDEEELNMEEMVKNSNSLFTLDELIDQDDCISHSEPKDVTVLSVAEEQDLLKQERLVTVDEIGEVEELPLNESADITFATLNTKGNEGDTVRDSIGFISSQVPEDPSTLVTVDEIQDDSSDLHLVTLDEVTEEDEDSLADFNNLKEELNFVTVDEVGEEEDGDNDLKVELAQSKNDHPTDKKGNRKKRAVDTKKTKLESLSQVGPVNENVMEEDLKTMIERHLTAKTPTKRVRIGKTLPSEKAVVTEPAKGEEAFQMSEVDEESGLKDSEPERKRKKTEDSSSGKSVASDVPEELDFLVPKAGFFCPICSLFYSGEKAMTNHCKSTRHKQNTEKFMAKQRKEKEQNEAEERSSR
# UniProt Q9UID6: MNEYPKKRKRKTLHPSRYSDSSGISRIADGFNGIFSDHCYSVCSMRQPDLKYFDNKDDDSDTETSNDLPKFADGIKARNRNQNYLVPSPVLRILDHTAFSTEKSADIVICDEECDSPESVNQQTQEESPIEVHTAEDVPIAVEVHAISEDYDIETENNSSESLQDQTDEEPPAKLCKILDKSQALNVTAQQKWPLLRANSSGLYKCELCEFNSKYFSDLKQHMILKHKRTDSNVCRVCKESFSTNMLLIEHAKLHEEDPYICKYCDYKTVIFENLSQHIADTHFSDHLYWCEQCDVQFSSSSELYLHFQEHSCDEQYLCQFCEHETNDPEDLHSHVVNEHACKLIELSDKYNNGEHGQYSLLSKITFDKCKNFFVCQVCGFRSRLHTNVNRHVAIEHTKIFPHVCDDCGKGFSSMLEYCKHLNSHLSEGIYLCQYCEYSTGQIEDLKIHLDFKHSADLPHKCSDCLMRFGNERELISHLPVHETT
# This is one part of the list.
# Legend:
# Test in all cases: log2 fold change, soluble protein after heating vs DMSO (PISA); higher = thermal stabilisation; K562 cells, 10 uM, 30 min; active = over 0.2 and 3.5 SD of the protein, either way, in both replicates (recomputed)
# [1] = target: ZNF593 (UniProt O00488)
# Outline: (§1)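 Aliquots of K562 cells (2×10^6 cells/mL) treated with 10 μM compound for 30 min were heated for 3 min over 48°C-58°C. After pooling and extraction in PBS with 0.5% NP-40 at 4°C, soluble protein from a 21,000xg, 90 min spin was quantified by TMTpro 16plex LC-MS/MS with channel sums equalised. Thermal stability is expressed against control samples, from duplicates, as a log2 fold change.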
# [2] = target: ZNF598 (UniProt Q86UK7)
# Outline: as §1
# [3] = target: ZNF609 (UniProt O15014)
# Outline: as §1
# [4] = target: ZNF618 (UniProt Q5T7W0)
# Outline: as §1
# [5] = target: ZNF618 isoform 2 (UniProt Q5T7W0)
# Outline: as §1
# [6] = target: ZNF622 (UniProt Q969S3)
# Outline: as §1
# [7] = target: ZNF629 (UniProt Q9UEG4)
# Outline: as §1
# [8] = target: ZNF638 (UniProt Q14966)
# Outline: as §1
# [9] = target: ZNF639 (UniProt Q9UID6)
# Outline: as §1
# [10] = target: ZNF618 (UniProt B1ALC2)
# Outline: as §1
SMILES,log2 fold change [1],log2 fold change [2],log2 fold change [3],log2 fold change [4],log2 fold change [5],log2 fold change [6],log2 fold change [7],log2 fold change [8],log2 fold change [9],log2 fold change [10]
COC(=O)[C@H](CCSC)NC(=O)c1ccc(NC[C@@H](N)CS)cc1-c1ccccc1,inactive: -0.003,inactive: -0.016,inactive: 0.019,inactive: 0.063,inactive: 0.062,inactive: 0.005,inactive: 0.026,inactive: 0.082,inactive: -0.166,
CON(C)C(=O)N1N=C(c2cc(F)ccc2F)S[C@@]1(CCCN)c1ccccc1 [filanesib],inactive: 0.287,inactive: 0.033,inactive: 0.049,inactive: -0.024,inactive: 0.135,inactive: -0.101,inactive: 0.243,inactive: 0.086,inactive: -0.016,
CN1CCN(c2nc(C3=C(c4c[nH]c5ccccc45)C(=O)NC3=O)c3ccccc3n2)CC1 [sotrastaurin],inactive: 0.047,inactive: -0.065,inactive: 0.016,inactive: 0.059,inactive: -0.029,inactive: 0.018,inactive: 0,inactive: 0.022,inactive: 0.164,
CNC(=O)c1ccc(Nc2ncc(C(F)(F)F)c(NCc3nccnc3N(C)S(C)(=O)=O)n2)cc1 [defactinib],inactive: 0.23,inactive: -0.057,inactive: -0.046,inactive: -0.044,inactive: 0.099,inactive: 0.057,inactive: 0.232,inactive: -0.14,inactive: -0.371,
CS(=O)(=O)c1ccc(-c2cnc(N)c(C(=O)Nc3ccccc3)n2)cc1,inactive: -0.029,inactive: -0.008,inactive: 0.021,inactive: -0.05,inactive: -0.082,inactive: 0.066,inactive: -0.019,inactive: -0.033,inactive: -0.075,
COC(=O)N[C@@H](C)CNc1nccc(-c2cn(C(C)C)nc2-c2cc(Cl)cc(NS(C)(=O)=O)c2F)n1 [encorafenib],inactive: 0.124,inactive: 0.003,inactive: -0.082,inactive: 0.003,inactive: 0.1,inactive: 0.01,inactive: 0.183,inactive: -0.055,inactive: -0.059,
NC(=O)c1cnc(N[C@@H]2CCCC[C@@H]2N)nc1Nc1cccc(-n2nccn2)c1,inactive: -0.025,inactive: 0.008,inactive: 0.015,inactive: -0.034,,inactive: -0.002,inactive: 0.141,inactive: 0.029,inactive: -0.127,
Cc1ccc2c(=O)c3ccccc3n(CCCN)c2c1C,inactive: -0.361,inactive: 0.166,inactive: 0.205,inactive: 0.033,inactive: -0.113,active: -0.285,inactive: -0.325,inactive: 0.004,inactive: -0.121,
O=C(Nc1cccc(Nc2ncc(Br)c(NCCc3cnc[nH]3)n2)c1)N1CCCC1,inactive: 0.13,inactive: -0.07,inactive: -0.035,inactive: -0.019,inactive: -0.046,inactive: 0.022,inactive: -0.057,inactive: 0.049,inactive: -0.19,
NC(=O)Nc1cc(-c2cccc(F)c2)sc1C(=O)N[C@H]1CCCNC1,inactive: -0.071,inactive: 0.001,inactive: 0.061,inactive: -0.065,inactive: 0.105,inactive: -0.028,inactive: 0.142,inactive: 0.029,inactive: 0.067,
CC(=O)c1cnc2ccc(-c3cc(Cl)c(O)c(Cl)c3)nc2c1N[C@H]1CC[C@H](CN(C)C)CC1,inactive: 0.004,inactive: -0.078,inactive: -0.071,inactive: 0.029,,inactive: 0.096,inactive: 0.185,inactive: 0.038,inactive: -0.127,
COc1cc(C(=O)O)ccc1NC(=O)[C@@H]1N[C@@H](CC(C)(C)C)[C@](C#N)(c2ccc(Cl)cc2F)[C@H]1c1cccc(Cl)c1F [idasanutlin],inactive: 0.134,inactive: 0.08,inactive: 0.021,inactive: 0.015,,inactive: -0.031,inactive: 0.219,inactive: 0.093,inactive: 0.098,
NC1(Cc2ccc(Cl)cc2)CCN(c2ncnc3[nH]ccc23)CC1,inactive: -0.093,inactive: 0.08,inactive: -0.115,inactive: 0.072,inactive: 0.025,active: -0.263,inactive: 0.006,inactive: -0.014,inactive: -0.017,
CN(CCOc1ccc(C[C@@H]2SC(=O)NC2=O)cc1)c1ccccn1 (racemic) [rosiglitazone],inactive: -0.044,inactive: 0.065,,inactive: 0.002,inactive: 0.131,,inactive: -0.049,inactive: 0.039,,inactive: 0.122
C[C@H](Nc1ncnc2nc[nH]c12)c1cc2cccc(Cl)c2c(=O)n1-c1ccccc1 [duvelisib],inactive: -0.17,inactive: -0.054,,inactive: -0.067,inactive: -0.018,,inactive: -0.097,inactive: -0.086,,
Cc1cc(Nc2cc(N3CCN(C)CC3)nc(Sc3ccc(NC(=O)C4CC4)cc3)n2)n[nH]1 [tozasertib],inactive: 0.055,inactive: -0.036,,inactive: -0.049,inactive: 0.006,,inactive: 0.02,inactive: -0.027,inactive: 0,
O=C1c2ccccc2-c2n[nH]c3cccc1c23,inactive: -0.097,inactive: 0.025,inactive: 0.002,inactive: -0.036,,inactive: 0.042,inactive: -0.011,inactive: -0.037,inactive: -0.108,
